Results reported in US20250325587A1 (MEDISIX THERAPEUTICS, published 2025).

Chains of the proteins cited; added tags and fusions are not shown. Residues count along the entry.
UniProt P07766, 23-207, chain 1 of 3: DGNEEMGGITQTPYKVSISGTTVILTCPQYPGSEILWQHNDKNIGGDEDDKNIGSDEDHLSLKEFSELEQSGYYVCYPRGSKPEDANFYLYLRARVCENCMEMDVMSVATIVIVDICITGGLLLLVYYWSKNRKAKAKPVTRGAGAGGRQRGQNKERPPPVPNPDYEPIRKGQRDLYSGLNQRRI
CD3 (TCR/CD3 complex) on the surface of human T cells and Jurkat (CD3+) cells, UniProt P09693, 23-182, chain 2 of 3: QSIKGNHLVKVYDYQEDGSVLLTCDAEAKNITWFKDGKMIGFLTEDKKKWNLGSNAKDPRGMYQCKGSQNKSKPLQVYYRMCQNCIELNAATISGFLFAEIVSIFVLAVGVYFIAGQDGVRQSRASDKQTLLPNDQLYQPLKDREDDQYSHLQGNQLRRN
CD3 (TCR/CD3 complex) on the surface of human T cells and Jurkat (CD3+) cells, UniProt P04234, 22-171, chain 3 of 3: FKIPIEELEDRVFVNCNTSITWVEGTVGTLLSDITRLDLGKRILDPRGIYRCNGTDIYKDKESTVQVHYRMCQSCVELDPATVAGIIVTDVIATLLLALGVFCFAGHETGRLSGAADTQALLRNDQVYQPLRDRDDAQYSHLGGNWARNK

Biological target: CD3 (TCR/CD3 complex) on the surface of human T cells and Jurkat (CD3+) cells (human, UniProt P07766 23-207; P09693 23-182; P04234 22-171)
Assay: cell-based or functional assay

B1: Anti-CD3 (UCHT1) CAR (UCHT1 scFv - CD8α hinge and transmembrane - 4-1BB - CD3ζ) (other)
chain: DIQMTQTTSSLSASLGDRVTISCRASQDIRNYLNWYQQKPDGTVKLLIYYTSRLHSGVPSKFSGSGSGTDYSLTISNLEQEDIATYFCQQGNTLPWTFAGGTKLEIKGGGGSGGGGSGGGGSGGGGSEVQLQQSGPELVKPGASMKISCKASGYSFTGYTMNWVKQSHGKNLEWMGLINPYKGVSTYNQKFKDKATLTVDKSSSTAYMELLSLTSEDSAVYYCARSGYYGDSDWYFDVWGQGTTLTVFSKPTTTPAPRPPTPAPTIASQPLSLRPEACRPAAGGAVHTRGLDFACDIYIWAPLAGTCGVLLLSLVITLYCKRGRKKLLYIFKQPFMRPVQTTQEEDGCSCRFPEEEEGGCELRVKFSRSADAPAYQQGQNQLYNELNLGRREEYDVLDKRRGRDPEMGGKPRRKNPQEGLYNELQKDKMAEAYSEIGMKGERRRGKGHDGLYQGLSTATKDTYDALHMQALPPR
% Cytotoxicity against Jurkat (CD3+) target cells, 24-hour assay, Effector:Target ratio 1:10, donor 1: 65%
% Cytotoxicity against Jurkat (CD3+) target cells, 24-hour assay, Effector:Target ratio 1:10, donor 2: 72%
% Cytotoxicity against Jurkat (CD3+) target cells, 24-hour assay, Effector:Target ratio 1:10, donor 3: 65%
% Cytotoxicity against Jurkat (CD3+) target cells, 24-hour assay, Effector:Target ratio 1:10, donor 4: 63%
% Cytotoxicity against Jurkat (CD3+) target cells, 24-hour assay, Effector:Target ratio 1:10, donor 5: 65%
% Cytotoxicity against Jurkat (CD3+) target cells, 24-hour assay, Effector:Target ratio 1:10, donor 6: 65%
